Patent publication US20060223096A1 (GLYCART BIOTECHNOLOGY, published 2006)
No constants are given. Whether binding was seen depends on the method and setting. Some entries that bind do so weakly or less than the wild type.

Chains of the proteins cited; added tags and fusions are not shown. Residues count along the entry.
UniProt Q6UVK1, residues 30-2322: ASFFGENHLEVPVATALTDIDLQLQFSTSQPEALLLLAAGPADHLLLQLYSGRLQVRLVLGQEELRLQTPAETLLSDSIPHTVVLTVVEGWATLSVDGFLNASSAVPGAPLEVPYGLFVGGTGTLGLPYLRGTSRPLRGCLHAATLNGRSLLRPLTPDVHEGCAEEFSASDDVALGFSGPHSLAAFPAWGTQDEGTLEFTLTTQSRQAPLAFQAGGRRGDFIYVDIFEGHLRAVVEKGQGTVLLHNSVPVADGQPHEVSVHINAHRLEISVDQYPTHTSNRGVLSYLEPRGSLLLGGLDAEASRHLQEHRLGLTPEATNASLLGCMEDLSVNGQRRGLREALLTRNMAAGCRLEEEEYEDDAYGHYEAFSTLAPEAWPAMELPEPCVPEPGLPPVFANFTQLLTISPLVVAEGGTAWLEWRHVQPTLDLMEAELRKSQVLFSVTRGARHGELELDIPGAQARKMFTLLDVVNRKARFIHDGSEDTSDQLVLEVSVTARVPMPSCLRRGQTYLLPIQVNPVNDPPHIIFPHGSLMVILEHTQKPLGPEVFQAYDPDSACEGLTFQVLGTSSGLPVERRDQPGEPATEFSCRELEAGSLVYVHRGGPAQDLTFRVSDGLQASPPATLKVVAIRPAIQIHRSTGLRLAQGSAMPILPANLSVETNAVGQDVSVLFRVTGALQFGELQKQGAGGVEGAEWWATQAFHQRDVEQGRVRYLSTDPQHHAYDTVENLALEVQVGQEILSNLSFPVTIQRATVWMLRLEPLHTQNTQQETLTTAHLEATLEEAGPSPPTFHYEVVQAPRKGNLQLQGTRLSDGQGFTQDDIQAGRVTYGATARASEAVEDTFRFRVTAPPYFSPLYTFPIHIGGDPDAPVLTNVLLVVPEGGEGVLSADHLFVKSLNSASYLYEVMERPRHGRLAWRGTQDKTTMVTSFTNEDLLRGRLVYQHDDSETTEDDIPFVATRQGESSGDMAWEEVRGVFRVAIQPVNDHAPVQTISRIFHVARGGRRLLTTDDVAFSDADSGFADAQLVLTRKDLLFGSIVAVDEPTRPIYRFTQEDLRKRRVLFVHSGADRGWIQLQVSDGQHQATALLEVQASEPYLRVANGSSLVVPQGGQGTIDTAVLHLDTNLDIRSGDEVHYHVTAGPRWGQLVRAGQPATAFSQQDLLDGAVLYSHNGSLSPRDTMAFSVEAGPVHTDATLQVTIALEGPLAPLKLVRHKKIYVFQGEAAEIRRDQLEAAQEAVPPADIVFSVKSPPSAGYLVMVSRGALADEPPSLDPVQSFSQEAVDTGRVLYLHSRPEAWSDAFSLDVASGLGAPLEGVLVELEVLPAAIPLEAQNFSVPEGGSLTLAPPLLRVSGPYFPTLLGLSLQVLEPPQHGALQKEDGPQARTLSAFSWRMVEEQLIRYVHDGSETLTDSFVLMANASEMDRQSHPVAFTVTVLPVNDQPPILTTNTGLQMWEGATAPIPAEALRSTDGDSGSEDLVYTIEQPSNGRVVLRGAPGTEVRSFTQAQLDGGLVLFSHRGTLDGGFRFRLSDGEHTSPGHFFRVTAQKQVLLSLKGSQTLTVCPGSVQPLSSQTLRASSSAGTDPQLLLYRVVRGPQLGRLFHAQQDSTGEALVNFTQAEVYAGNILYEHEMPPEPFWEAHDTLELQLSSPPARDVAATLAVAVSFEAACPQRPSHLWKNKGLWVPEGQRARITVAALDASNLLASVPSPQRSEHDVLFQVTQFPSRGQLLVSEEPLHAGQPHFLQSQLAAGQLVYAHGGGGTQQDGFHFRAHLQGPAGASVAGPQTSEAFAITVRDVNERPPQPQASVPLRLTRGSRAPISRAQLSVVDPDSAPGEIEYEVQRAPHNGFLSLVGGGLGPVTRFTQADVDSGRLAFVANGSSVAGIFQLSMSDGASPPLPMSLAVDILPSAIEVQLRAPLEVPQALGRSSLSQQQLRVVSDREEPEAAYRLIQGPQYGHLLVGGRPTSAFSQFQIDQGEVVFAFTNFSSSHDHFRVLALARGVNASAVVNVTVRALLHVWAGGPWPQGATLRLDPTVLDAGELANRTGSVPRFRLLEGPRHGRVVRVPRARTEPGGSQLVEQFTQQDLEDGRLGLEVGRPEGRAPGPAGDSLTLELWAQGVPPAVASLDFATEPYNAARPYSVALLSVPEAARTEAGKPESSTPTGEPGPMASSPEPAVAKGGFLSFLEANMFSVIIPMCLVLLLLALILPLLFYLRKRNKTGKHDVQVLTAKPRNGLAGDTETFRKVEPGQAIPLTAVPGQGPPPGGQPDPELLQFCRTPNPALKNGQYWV

Molecular target: human melanoma chondroitin sulfate proteoglycan (MCSP) (human) (UniProt Q6UVK1)
Test: flow cytometry on A375 human melanoma cells

- binding: binds
B1: M-KV11 light chain combined with the M-HLG heavy chain (antibody, V domains shown)
VH: EVQLVESGGGLVQPGGSLRLSCAASGFTFSNYWMNWVRQAPGKGLEWVAEIRLKSNNFGRYYAASVKGRFTISRDDSKNTLYLQMNSLKTEDTAVYYCTTYGNYVGHYFDHWGQGTTVTVSS
VL: DIQLTQSPSFLSASVGDRVTITCRASQNVDTNVAWYQQKPGQAPRPLIYSASYRYTGVPSRFSGSGSGTEFTLTISSLQPEDFATYYCQQYNSYPLTFGGGTKVEIKR
